Some results were stated once for a whole list of compounds, not compound by compound.
Tested on: Mut-LSCs
Experiment: Rescue experiments: compound added to the culture medium of Mut-LSCs (cell toxicity, optimal concentration)
Type: cell-based, Human
Conditions: compound added into the culture medium
Description: Cells and culture conditions: Human mutated limbal epithelial stem cells (mut-LSCs) were obtained by genome editing (Crispr/cas9) of primary limbal stem cells, as described in Roux et al. (Roux, 2018 Stem cells). mut-LSCs and WT controls were cultured, as described earlier (Roux, 2018 Stem cells), in Keratinocyte serum-free medium (K-sfm) (Gibco™, Life Technologies), supplemented with 25 μg/mL Bovine Pituitary Extract (BPE; Gibco™, Life Technologies), 0.2 ng/mL Epidermal Growth Factor (EGF, Peprotech), 0.4 mM CaCl2, 2 mM Glutamine (Gibco™, Life Technologies) and 100 U/mL Penicillin/Streptomicin (Gibco™, Life Technologies). Routine subcultures were obtained by detaching cells with StemPro™ Accutase™ Cell Dissociation Reagent (Gibco™, Life Technologies) and replating at 2,000 cells/cm^2 (T-LSCs) or 3,000 cells/cm^2 (PAX6^+/− T-LSCs). All cells were negative for mycoplasma contamination (monthly tested).
Rescue experiments: Mut-LSCs were treated with each compound (Duloxetine, Ritanserine and Topotecan) directly added into the culture medium from 0.5 μg/mL to 4 μg/mL. No cell toxicity has been observed up to 10 μg/mL. The optimal concentration for each experiment (qRT-PCR, cell migration and cell adhesion) was 0.5 μg/mL. […]

| SMILES | cell toxicity: no toxicity observed up to this concentration |
| --- | --- |
| CC[C@@]1(O)C(=O)OCc2c1cc1n(c2=O)Cc2cc3c(CN(C)C)c(O)ccc3nc2-1 [Topotecan, topotecan] | > 10 µg/mL |
| Cc1nc2sccn2c(=O)c1CCN1CCC(=C(c2ccc(F)cc2)c2ccc(F)cc2)CC1 [Ritanserine, ritanserin] | > 10 µg/mL |

— US20220265659A1, “METHODS AND COMPOSITIONS FOR TREATING PAX6-DEFICIENCY RELATED DISEASE” (INSERM (INSTITUT NATIONAL DE LA SANTÉ ET DE AL RECHERCHE …, priority 2019, published 2022)
